Results as given in ChEMBL document CHEMBL4130556, “Selective Estrogen Receptor Degraders (SERDs): A Promising Treatment to Overcome Resistance to Endocrine Therapy in ERα-Positive Breast Cancer” (ACS Med Chem Lett, 2017).

Test system: MCF7
Assay: cells
Conditions: Homo sapiens

Question: How did the IC50 turn out when `CN1CC=C(C2=C(c3ccc(O[C@H]4CCN(CCCF)C4)cc3)c3ccc(O)cc3CCC2)CC1` was run?
Answer: The IC50 was 48 nM.
